No constants are given. Whether binding was seen depends on the method and setting. Binding seen in cells or lysates may run through a third protein. Some results given as binding are weak or reduced against the parent protein; the word gives no strength.
How the values were obtained:
Test in all cases: co-IP
[1] = biological target: T1, zebrafish Lhx1b (zebrafish) (UniProt O13106)
T1 sequence: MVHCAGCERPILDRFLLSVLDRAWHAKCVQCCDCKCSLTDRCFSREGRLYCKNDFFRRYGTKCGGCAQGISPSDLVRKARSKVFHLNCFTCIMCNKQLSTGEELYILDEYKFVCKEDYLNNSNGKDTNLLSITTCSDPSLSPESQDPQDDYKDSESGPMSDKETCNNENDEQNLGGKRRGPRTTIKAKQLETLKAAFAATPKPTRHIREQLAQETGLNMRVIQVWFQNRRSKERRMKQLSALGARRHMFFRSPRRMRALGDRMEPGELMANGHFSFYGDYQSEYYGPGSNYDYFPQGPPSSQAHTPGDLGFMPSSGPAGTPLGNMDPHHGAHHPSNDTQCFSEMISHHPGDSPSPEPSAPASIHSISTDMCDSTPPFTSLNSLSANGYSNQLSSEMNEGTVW

[2] = biological target: T2, zebrafish Lhx1a (zebrafish) (UniProt Q90476)
T2 sequence: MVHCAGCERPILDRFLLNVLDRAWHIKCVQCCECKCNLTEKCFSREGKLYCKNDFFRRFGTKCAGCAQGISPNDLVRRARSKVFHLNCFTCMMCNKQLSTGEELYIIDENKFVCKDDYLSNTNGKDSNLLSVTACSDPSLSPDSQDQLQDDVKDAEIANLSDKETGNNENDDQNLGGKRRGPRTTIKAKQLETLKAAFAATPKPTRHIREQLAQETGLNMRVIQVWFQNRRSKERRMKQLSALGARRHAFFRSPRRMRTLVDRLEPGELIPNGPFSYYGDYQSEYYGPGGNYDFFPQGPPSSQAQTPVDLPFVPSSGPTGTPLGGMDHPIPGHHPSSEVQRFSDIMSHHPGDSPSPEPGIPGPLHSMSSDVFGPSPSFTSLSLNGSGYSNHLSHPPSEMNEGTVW

[3] = biological target: T3, zebrafish Lhx5 (zebrafish) (UniProt P52889)
T3 sequence: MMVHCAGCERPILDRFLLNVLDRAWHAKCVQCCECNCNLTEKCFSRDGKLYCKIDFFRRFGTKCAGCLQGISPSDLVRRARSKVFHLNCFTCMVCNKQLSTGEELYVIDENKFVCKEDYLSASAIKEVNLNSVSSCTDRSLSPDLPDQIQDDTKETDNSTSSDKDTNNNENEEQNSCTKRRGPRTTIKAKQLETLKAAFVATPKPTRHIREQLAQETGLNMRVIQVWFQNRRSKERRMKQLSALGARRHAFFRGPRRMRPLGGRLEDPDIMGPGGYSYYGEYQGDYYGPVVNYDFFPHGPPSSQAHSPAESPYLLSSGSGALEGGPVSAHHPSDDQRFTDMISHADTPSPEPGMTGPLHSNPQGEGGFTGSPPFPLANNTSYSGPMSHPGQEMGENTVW

binding [1]: binds
binding [2]: binds
binding [3]: binds
B1: zebrafish Skor1b (protein, UniProt Q1LXZ9 1-751)
chain: MESIPNQLPAGRDSSCSPNSKDLQSYSGPPLKPNQVSETSLYGIPIVSLVIDGQERLCLAQISNTLLKNYSYNEIHNRRVALGITCVQCTPVQLEILRRAGAMPISSRRCGMITKREAERLCKSFLGAHSPPKLPENFAFDVSHECAWGSRGNFIPARYNSSRAKCIKCSFCNMYFSPNKFIFHSHRTPESKYTQPDAANFNSWRRHLKLSDKNSSDDVIHAWEDVKAMFNGGSRKRTLPIGRSESSPSQPPRGQTQGEPSDVPHKTLRCEDDRVNVTMPSSIRSYPVIPVPSKSFGMLQKIPPPLFPHPYGFPAFGLCQKKDDGEVMGEPNKTNLSGVFWPSPKDSAYTSFPMFWPTTGSLAMPTYHHAQPKPPSDVLCARHNELDVSEQSDRSTSTPKDSLLDNERCSSTQSTRNEEDKSGDESRSIEGIPPTSRKISYISAFRPVVKDVESIAKLYGNRGPYSGPRSGYMSPDFLSESSSYRSVSPDVDSVDDPDVDVESHKAHEDEECLQLSVDDRRSPHSLTLAQSEGVKGQDQENTQMHTLNDLHSTNSSETRPSDMESHGNKHTTRFEVYARERDEHVHQMSTSYFGSATTYQRETSVKDVHEEEPSSTVEEMEPKNHQDENNISEERLKEPNDVCADEEAICKDTGNRGSLIEKNIESMAKEELQKQLVEQVELRKKLEREFQNLKDSFQDQMKRELSYREEMVQQLQIVREAHDALHHFSCKMLTPRHCTGTCTFKPPLLPP

Reference: article doi:10.1101/2023.04.06.535843
